{
  "source": "patent US6849271B2",
  "about": "“Microcapsule matrix microspheres, absorption-enhancing pharmaceutical compositions and methods” (Verion, Inc., priority 2001, dated 2005)",
  "key": {"[1]": {"experiment": "Pharmacokinetic profiles of nifedipine formulations in male rats (first study)", "conditions": "individual rats"}, "[2]": {"conditions": "cited from earlier work"}},
  "note": "Values joined by “and” are separate entries in the source; they are usually repeats but may differ in a detail not shown here. Equal entries are not always repeated.",
  "data": [
    {"compound": "COC(=O)C1=C(C)NC(C)=C(C(=O)OC)C1c1ccccc1[N+](=O)[O-]", "note": "[nifedipine, 1,4-Dihydro-2,6-dimethyl-4-(2-nitrophenyl)-3,5-pyridinedicarboxylic acid dimethyl ester]", "values": [
      {"measurement": "AUCinf", "setting": "[1]; intravenous 0.1 mg/kg", "value": 81.4, "unit": "ng·h/mL"},
      {"measurement": "Cmax", "setting": "[1]; intravenous 0.1 mg/kg", "value": "223 ng/mL and 255 ng/mL"},
      {"measurement": "Cmax", "setting": "[1]; male, Sprague-Dawley, rat, in vivo, iv, 0.1 mg/kg, Cmax", "value": 230, "unit": "ng/mL"},
      {"measurement": "absorption from the human gastro-intestinal tract", "setting": "[2]; human", "value": "over 90%"},
      {"measurement": "systemic bioavailability", "setting": "[2]; human", "value": "45-70%"},
      {"measurement": "steady state volume of distribution", "setting": "[2]; in vivo", "value": "0.3 to 1.2", "unit": "L/kg"},
      {"measurement": "metabolism by oxidation to the pyridine (hydroxycarboxylic acid) metabolite", "setting": "[2]; liver, cytochrome P450", "value": "70-95%"}
    ]}
  ]
}
